Assay results taken from US20130123478.
For part of these data: Where cells or extracts were used, other partners may take part. For part of these data: Weaker means in comparison with the reference protein, sequence or condition of that experiment. For part of these data: Protein sequences can lack the tags named with them. For part of these data: Construct, isoform or probe ends are uncertain for at least one entry.

Legend:
[1] = target: T1, Protein tyrosine kinase 7 (PTK7) (Homo sapiens) (UniProt Q13308); assay: flow cytometry; conditions: 5-fluorodeoxyuridine at U positions (all 9 T); 3' inverted dT; better than scrambled control, less than scgc8; inhibited Jurkat growth as efficiently as free drug at 500 nM; protein on the cell surface; label: 5' fluorescein; single-stranded DNA; variant of scgc8
T1 sequence (looked up, limits assumed): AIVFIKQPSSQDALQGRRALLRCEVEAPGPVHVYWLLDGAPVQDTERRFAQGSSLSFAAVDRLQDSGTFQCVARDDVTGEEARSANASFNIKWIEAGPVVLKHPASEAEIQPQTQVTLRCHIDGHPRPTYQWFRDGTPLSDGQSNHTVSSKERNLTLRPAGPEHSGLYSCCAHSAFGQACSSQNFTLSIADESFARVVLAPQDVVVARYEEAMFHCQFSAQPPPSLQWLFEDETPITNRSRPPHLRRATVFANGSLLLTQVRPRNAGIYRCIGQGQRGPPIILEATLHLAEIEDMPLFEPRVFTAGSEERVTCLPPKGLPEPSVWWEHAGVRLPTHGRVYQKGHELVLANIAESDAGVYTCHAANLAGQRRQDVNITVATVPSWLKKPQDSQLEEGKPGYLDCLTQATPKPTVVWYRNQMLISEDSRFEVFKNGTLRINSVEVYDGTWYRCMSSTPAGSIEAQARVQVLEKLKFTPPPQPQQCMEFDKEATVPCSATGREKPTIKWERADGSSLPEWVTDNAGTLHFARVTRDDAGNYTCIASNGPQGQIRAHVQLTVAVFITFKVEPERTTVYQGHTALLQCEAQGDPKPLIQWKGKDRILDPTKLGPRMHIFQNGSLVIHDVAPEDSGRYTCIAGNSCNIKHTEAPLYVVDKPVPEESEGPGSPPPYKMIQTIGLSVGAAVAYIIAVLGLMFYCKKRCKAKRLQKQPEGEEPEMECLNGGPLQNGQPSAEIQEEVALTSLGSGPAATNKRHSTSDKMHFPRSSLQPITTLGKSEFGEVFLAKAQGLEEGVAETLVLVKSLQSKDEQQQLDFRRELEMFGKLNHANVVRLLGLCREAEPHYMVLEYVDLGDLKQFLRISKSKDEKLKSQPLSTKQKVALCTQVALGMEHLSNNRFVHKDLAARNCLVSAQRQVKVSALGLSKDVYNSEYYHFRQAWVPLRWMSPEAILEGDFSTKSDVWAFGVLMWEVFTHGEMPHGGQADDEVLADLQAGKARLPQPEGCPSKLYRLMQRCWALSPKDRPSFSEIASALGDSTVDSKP

[2] = target: Transferrin receptor (CD71, TfR) (Homo sapiens) (UniProt P02786); assay: SELEX; conditions: 2'-F pyrimidines (2'F modified RNA pool); functional clone from round 5; rounds 1-4 on recombinant protein, round 5 internalization on HeLa; purified recombinant protein
[3] = target: Transferrin receptor (CD71, TfR) (Homo sapiens) (UniProt P02786); assay: flow cytometry; conditions: FdC prodrug toxic to HeLa at 50 nM, protein on the cell surface, protein details: endogenous on HeLa or Jurkat cells

Sequence	selection result [2]	other results
AUCUAACUGCUGCGCCGCCGGGAAAAUACUGUACGGUUAGA [scgc8-9]	–	binding result [1]: binds more weakly
GGGAGGUGAAUGGUUCUACGAUCAUUACGGCUACCCCGUGUAACGUCUAGCCAAAGUAGUACCAAAAGUCAGUUACAUGCGAGAUGACCACGUAAUUGAAUUAAAUGCCCGCCAUGACCAG [clone 11 (c11)]	selected	–
GGGAGGUGAAUGGUUCUACGAUUAGGUUAGCGGCAGAUCACUACAAAGCCCCUAGAGCACAUGCUCCACCGCUUUACAUGCCGAGAUGACCACCGUAAUAGAAUUAAAUGCCCGCCAUGACCAG [clone 4 (c4)]	selected	–
GGGAGGUGAAUGGUUCUACGAUUCAAACAUCUCACAGAUCAAUCCAAGGGACCUCGUUAAAGGACGACUCCCUUACAUGCGAGAUGACCACGUAAGGAAUUAAAUGCCCGCCAUGACCAG [clone 2 (c2)]	selected	–
GGGGGATCAATCCGGCTACCCCGTGTAACGTCTAGCCACACCCCGAATTAAATGCCCGCCATGACCAG / CTCCTCATGCCGCGCATCTCATTA [c2m9.1.drug (min9.1 extended) hybridized to 5FdC.oligo.1]	–	binding result ([3]; 2'-F pyrimidines in aptamer strand, 5-fluorodeoxycytidine at all C of DNA oligo, function after hybridization confirmed by FACS with FITC version of oligo, DPBS Ca2+ Mg2+ assembly): binds
GGGGGAUCAAUCCAAGGGACCCGGAAACGCUCCCUUACACCCC [c2m8 (min8)]	–	binding result ([3]; 2'-F pyrimidines (2'F modified RNA pool), function after hybridization confirmed by FACS with FITC oligo, variant of clone 2 (c2)): binds
